Data published in article PMC6509187.
Results are given in words; binding and its absence hold for the method and conditions named. In cells and extracts the contact can be indirect. A result given as binding can be weak or reduced; the word gives no strength. For part of these data: Where a sequence is shown, tags or fusion partners need not be part of it.

How the values were obtained:
[1] = target: nonmuscle myosin heavy chain IIA (NMHC-IIA) (pig (endogenous in PAMs)); assay: co-IP
[2] = target: nonmuscle myosin heavy chain IIA (NMHC-IIA) (pig (endogenous in PAMs)); assay: co-IP; NMHC-IIA immunoprecipitated from membrane proteins (native membrane protein extraction kit) of PRRSV-infected PAMs; immunoblot
[3] = target: NMHC-IIA (endogenous in CRL-2843-CD163 cells) (pig (endogenous in CRL-2843-CD163)); assay: co-IP; CRL-2843-CD163 cells transfected with 3×Flag-DAP12, 3×Flag-DAP12 mutants or Syk-myc-his for 48 h; endogenous NMHC-IIA immunoprecipitated from whole-cell lysates; immunoblot

Row | binding [1] | binding [2] | binding [3] | Binder
1 | binds | binds | – | DNAX activation protein of 12 kDa (DAP12) (protein, UniProt Q9TU45 26-108) QRECSCSAVSPGILAGIVLGDLVLTLLIALAVYSLGRLVPRTRGAVDVTRKQHIAETESAYQELQGQRSDVYSDLNTQRQYYK
2 | – | – | binds | 3×Flag-DAP12 (in CRL-2843-CD163 cells) (protein, UniProt Q9TU45 26-108) QRECSCSAVSPGILAGIVLGDLVLTLLIALAVYSLGRLVPRTRGAVDVTRKQHIAETESAYQELQGQRSDVYSDLNTQRQYYK
